Data published in patent US7408025B2, “Lipopeptides as antibacterial agents” (priority 1999, dated 2008).
At least one peptide structure holds a part that was inferred or is arguable (an end, a ring closure or a residue).

Test system: Methicillin Resistant S. aureus (ATCC 43300)
Assay: Mouse protection test, intraperitoneal MRSA infection
Assay type: in vivo, female CD-1 mice
Conditions: for Survival (7 days): MRSA #43300 2 × 10^7 cfu/mouse, s.c. × 2

## CCCCCCCCCC(=O)NC(Cc1c[nH]c2ccccc12)C(=O)NC(CC(N)=O)C(=O)NC(CC(=O)O)C(=O)NC1C(=O)NCC(=O)NC(CCCNC(=O)C2Cc3c([nH]c4ccccc34)CN2)C(=O)NC(CC(=O)O)C(=O)NC(C)C(=O)NC(CC(=O)O)C(=O)NCC(=O)NC(CO)C(=O)NC(C(C)CC(=O)O)C(=O)NC(CC(=O)c2ccccc2N)C(=O)OC1C (centres unmarked) [Compound 70]
0.16 mg/kg
  Survival (7 days): 0/5
0.63 mg/kg
  Survival (7 days): 1/5
2.5 mg/kg
  Survival (7 days): 3/5
10 mg/kg
  Survival (7 days): 5/5
mice, MRSA i.p., s.c. × 2, survival 7 days after inoculation
  ED50 mg/kg S. aureus: ++ (MIC (μg/ml) or ED50 of greater than 1 μg/ml or 1 mg/kg, respectively but less than or equal to 10 μg/ml or ED50 of 10 mg/kg, respectively)
